For some assays here: Expression grades refer to the transcript from which the peptide derives; gene names, where given, were looked up from the sequence.
What was measured:
[1] = tested on: tumors compared to a panel of normal tissues; assay: Identification and label-free LC-MS quantitation of HLA-presented tumor associated peptides (presentation profiles/scores); set-up: species or system human; key to Peptide Presentation (presentation score): very highly over-presented on tumors compared to a panel of normal tissues (+++); highly over-presented on tumors compared to a panel of normal tissues (++); over-presented on tumors compared to a panel of normal tissues (+); settings: over-presentation on tumors compared to a panel of normal tissues; label-free LC-MS quantitation of HLA peptides
[2] = tested on: source genes (mRNA) in tumors compared to a panel of normal tissues; assay: Expression profiling of genes encoding the peptides (Affymetrix microarray, expression scores); set-up: species or system human; key: very highly over-expressed in tumors compared to a panel of normal tissues (+++); highly over-expressed in tumors compared to a panel of normal tissues (++); over-expressed in tumors compared to a panel of normal tissues (+); settings: over-expression of the source gene in tumors compared to a panel of normal tissues; Affymetrix microarrays

| Substance | Peptide Presentation (presentation score) [1] | Gene Expression (expression score) [2] |
| --- | --- | --- |
| 175: peptide found in CCND1 (gene looked up) (ALLESSLRQA; listed as Homo sapiens) [compound 175] | ++ | + |
| 132: peptide found in HNRNPU (gene looked up) (FLWAGGRASYGV; listed as Homo sapiens) [compound 132] | +++ | + |
| 11: peptide found in IPO7 (gene looked up) (ALYYNPHLL; listed as Homo sapiens) [compound 11] | +++ | + |
| 165: peptide found in NCAPG (gene looked up) (YLLSYIQSI; listed as Homo sapiens) [compound 165] | ++ | +++ |
| 31: peptide found in ADAM9 (gene looked up) (YLDSMYIML; listed as Homo sapiens) [compound 31] | ++ | + |
| 173: peptide found in NCAPD2 (gene looked up) (SLAGDVALQQL; listed as Homo sapiens) [compound 173] | +++ | + |
| 137: peptide found in SLC1A5 (gene looked up) (KLGPEGELL; listed as Homo sapiens) [compound 137] | +++ | + |

Source: US11485769B2, “Peptides and combination of peptides for use in immunotherapy and methods for generating scaffolds for the use against pancreatic cancer and other cancers” (Immatics Biotechnologies GmbH, priority 2015, dated 2022)
